# Measured values: publication PMC7140707
# These are yes or no findings as the source states them, for the method shown. Binding seen in cells or lysates may run through a third protein. Here binding means that the protein was enriched with, or labelled near, the bait; the list need not be complete. Tags and fused reporters may be left off the sequences shown.
# T1: His6-Gis1 (yeast (S. cerevisiae)) (UniProt Q03833)
# T1 sequence: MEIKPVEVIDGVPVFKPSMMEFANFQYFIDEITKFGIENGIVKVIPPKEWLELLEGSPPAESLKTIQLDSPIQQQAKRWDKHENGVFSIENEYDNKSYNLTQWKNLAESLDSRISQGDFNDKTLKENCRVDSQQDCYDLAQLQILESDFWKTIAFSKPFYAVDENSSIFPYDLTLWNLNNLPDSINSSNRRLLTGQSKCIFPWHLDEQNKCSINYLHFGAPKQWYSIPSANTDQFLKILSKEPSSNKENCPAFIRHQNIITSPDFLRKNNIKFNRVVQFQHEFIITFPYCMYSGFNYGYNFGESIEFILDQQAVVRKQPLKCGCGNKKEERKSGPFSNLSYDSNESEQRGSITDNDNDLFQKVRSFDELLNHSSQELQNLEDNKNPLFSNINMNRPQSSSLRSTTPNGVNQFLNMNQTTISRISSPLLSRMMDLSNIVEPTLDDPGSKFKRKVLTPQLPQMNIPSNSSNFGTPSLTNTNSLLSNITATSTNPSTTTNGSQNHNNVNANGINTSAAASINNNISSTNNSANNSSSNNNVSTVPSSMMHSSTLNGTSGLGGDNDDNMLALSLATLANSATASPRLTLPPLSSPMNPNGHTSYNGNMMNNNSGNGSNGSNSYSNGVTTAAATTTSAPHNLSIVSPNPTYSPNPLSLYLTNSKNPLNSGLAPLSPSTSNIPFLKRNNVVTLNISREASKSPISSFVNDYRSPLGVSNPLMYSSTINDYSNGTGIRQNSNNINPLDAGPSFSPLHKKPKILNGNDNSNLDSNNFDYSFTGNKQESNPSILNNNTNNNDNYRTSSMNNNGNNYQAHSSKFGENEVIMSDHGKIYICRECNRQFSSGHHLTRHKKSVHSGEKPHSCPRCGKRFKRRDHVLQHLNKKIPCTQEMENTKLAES
# B1: SNF4 (protein, UniProt P12904 1-322)
# chain: MKPTQDSQEKVSIEQQLAVESIRKFLNSKTSYDVLPVSYRLIVLDTSLLVKKSLNVLLQNSIVSAPLWDSKTSRFAGLLTTTDFINVIQYYFSNPDKFELVDKLQLDGLKDIERALGVDQLDTASIHPSRPLFEACLKMLESRSGRIPLIDQDEETHREIVVSVLTQYRILKFVALNCRETHFLKIPIGDLNIITQDNMKSCQMTTPVIDVIQMLTQGRVSSVPIIDENGYLINVYEAYDVLGLIKGGIYNDLSLSVGEALMRRSDDFEGVYTCTKNDKLSTIMDNIRKARVHRFFVVDDVGRLVGVLTLSDILKYILLGSN
# B2: SDS22 (protein, UniProt P36047 1-338)
# chain: MDKNSVNKDSEEKDERHKIEVVDDTNPDFITADSELTQDLPDDVEVIDLVHLKIKSLEDLNLYRFKNLKQLCLRQNLIESISEVEVLPHDKIVDLDFYDNKIKHISSNVNKLTKLTSLDLSFNKIKHIKNLENLTDLENLYFVQNSISKIENLSTLKSLKNLELGGNKVHSIEPDSFEGLSNLEEIWLGKNSIPRLINLHPLKNLKILSIQSNKLKKIENLEELTNLEELYLSHNFITKIEGLEKNLKLTTLDVTSNKITSLENLNHLSNLTDIWASFNKIDQSFESLGENLSALSRLETIYLEGNPIQLENKTSYRRKLTMNLPPSLQKIDATYIRG
# B3: DIG1 (protein, UniProt Q03063 1-452)
# chain: MAVSARLRTTAEDTSIAKSTQDPIGDTEISVANAKGSSDSNIKNSPGGNSVGQESELEHVPEEDDSGDKEADHEDSETATAKKRKAQPLKNPKKSLKRGRVPAPLNLSDSNTNTHGGNIKDGNLASSNSAHFPPVANQNVKSAPAQVTQHSKFQPRVQYLGKASSRQSIQVNNSSNSYGKPHMPSAGIMSAMNPYMPMNRYIMSPYYNPYGIPPPHMLNKPIMTPYVSYPYPMGPRTSIPYAMQGGNARPYEENEYSASNYRNKRVNDSYDSPLSGTASTGKTRRSEEGSRNSSVGSSANAGPTQQRADLRPADMIPAEEYHFERDALLSANTKARSASTSTSTSTSTNRDRSSWHEAEPNKDEEEGTDLAIEDGAVPTPTFTTFQRTSQPQQQSPSLLQGEIRLSSHIFAFEFPLSSSNVDKKMFMSICNKVWNESKELTKKSSSHHRTGK
# B4: SCS2 (protein, UniProt P40075 1-244)
# chain: MSAVEISPDVLVYKSPLTEQSTEYASISNNSDQTIAFKVKTTAPKFYCVRPNAAVVAPGETIQVQVIFLGLTEEPAADFKCRDKFLVITLPSPYDLNGKAVADVWSDLEAEFKQQAISKKIKVKYLISPDVHPAQNQNIQENKETVEPVVQDSEPKEVPAVVNEKEVPAEPETQPPVQVKKEEVPPVVQKTVPHENEKQTSNSTPAPQNQIKEAATVPAENESSSMGIFILVALLILVLGWFYR
# B5: YBL086C (protein, UniProt P38177 1-466)
# chain: MPFNHNSKAKRPKFLLDLQIKELVNIPQSSGYCYTKWRLKDGTGTSGHKVALDGEHQTTSTQSRGTTKHVHVQHHRAQWNYSLDKPILVKLHLDKNGRFLKKILVLDVFFEFADANSSLTSSSSPNGKVKKTTYANATALTATGNNSYSQKITGKLLLGTVDIDITEYVKEDETPTTNRFLLKHSKVNSIINVSLQLKLVRGSYEDFNISKSFTNGQLANYRPGINTILDNTSELSSPTSTTNQMSPKNTFSNFNGIGTTVAKPGTNATGNSTSIKSPTSTNHKSSEMTTKPGLSTTISSSMSPLIESLYQKTFKLPWDPRPGEFTPRECVEDILQGGNGWAKNEKGINLIDLQALRLNEMEEEYYNPNYGNNLGNKASSWPPNPSDDGYSTMGKREYLEKKQNWSHMSRAQRAKLRTHNDEDNENTANDKGSDKDNNSVEDNNPTDFLTDRIRENKNWSIITPSG
# B6: SUA7 (protein, UniProt P29055 1-345)
# chain: MMTRESIDKRAGRRGPNLNIVLTCPECKVYPPKIVERFSEGDVVCALCGLVLSDKLVDTRSEWRTFSNDDHNGDDPSRVGEASNPLLDGNNLSTRIGKGETTDMRFTKELNKAQGKNVMDKKDNEVQAAFAKITMLCDAAELPKIVKDCAKEAYKLCHDEKTLKGKSMESIMAASILIGCRRAEVARTFKEIQSLIHVKTKEFGKTLNIMKNILRGKSEDGFLKIDTDNMSGAQNLTYIPRFCSHLGLPMQVTTSAEYTAKKCKEIKEIAGKSPITIAVVSIYLNILLFQIPITAAKVGQTLQVTEGTIKSGYKILYEHRDKLVDPQLIANGVVSLDNLPGVEKK
# B7: SOK1 (protein, UniProt P40317 1-901)
# chain: MDQPRTHSGPTTASNPAPSSTNSSSAPSATNSKQERSSSSLSKPSSVVPSKDSPDGDAIAKTQAAALKNDMKSGDTSTLDGSSQNIIPNRASMQKYIDQSSDLLSRSSGVITPSMSLNASTNATNNDSSGNSANSSDLKIPIDRDNTIFKTFDTKTGQFLKNDDNEEEIRRNNKVDSIPPKNIYTNINNPSPSPPPSSKQPPSASAPQLPPATEPHKEQAAQQQPPGNASNFLRIFSNKKMRSHSVPTILHSSLRKLSSHNQYYRNQNILLNHPTPSGISKKKFSRNHHQPYLHSNNPLSSNPLSLKRAIFLNQQISGNASTNANNDNINNSTATSMTNQSFLSSSNFDLTLEDRINYIKATPTPVPFPPINLQGLKEIDLQEILKNPQLRHDIIFDPLLQFRPNLDGERGNKKRQLANIYWNDVQNEIYVYSKRPEIFQYNRSRLVPLFDTLRDVLLTIVPQKESPMINNVLDTELNIQELLKGSLIMSNLSGWLADLFKHHCAPMRDPWVDKMSNKFKEAERDSSLTRLIEGLRLVFQILETMKLDIANHQIRILRPALLSNAVEFEKQYFNTLIASKRVNLNTSLLWFDKKFNENVTAGLVRNPSSITIPDVYNICIRSIINLLSCRKMVREYPTPLSFDHARLILLRADIRQIVCILVCRLLFQQLVANDPSMDKATKEYVIHTYSTKRLKNEIISIITDEHGNCRWTKNTMSIAVHLCKVIDDLHREYDNNGSCEQARRPQLPSLDNSKITFAKSWLSKQTQPLSEVYGVLENRVFKSLEDAIFNRSECTIDGRVKQDFVYLYNTNNGNVGSTNTLSTTTDTASVKISPSLMSPSKTSTTTPTGNAIASRGLFAATELEEFENVYRHLYALINLHWSVFGPHYIEMLGDKVNKKGI
# B8: SIP2 (protein, UniProt P34164 1-415)
# chain: MGTTTSHPAQKKQTTKKCRAPIMSDVREKPSNAQGCEPQEMDAVSKKVTELSLNKCSDSQDAGQPSREGSITKKKSTLLLRDEDEPTMPKLSVMETAVDTDSGSSSTSDDEEGDIIAQTTEPKQDASPDDDRSGHSSPREEGQQQIRAKEASGGPSEIKSSLMVPVEIRWQQGGSKVYVTGSFTKWRKMIGLIPDSDNNGSFHVKLRLLPGTHRFRFIVDNELRVSDFLPTATDQMGNFVNYIEVRQPEKNPTNEKIRSKEADSMRPPTSDRSSIALQIGKDPDDFGDGYTRFHEDLSPRPPLEYTTDIPAVFTDPSVMERYYYTLDRQQSNTDTSWLTPPQLPPQLENVILNKYYATQDQFNENNSGALPIPNHVVLNHLVTSSIKHNTLCVASIVRYKQKYVTQILYTPIESS
# B9: VMA13 (protein, UniProt P41807 1-478)
# chain: MGATKILMDSTHFNEIRSIIRSRSVAWDALARSEELSEIDASTAKALESILVKKNIGDGLSSSNNAHSGFKVNGKTLIPLIHLLSTSDNEDCKKSVQNLIAELLSSDKYGDDTVKFFQEDPKQLEQLFDVSLKGDFQTVLISGFNVVSLLVQNGLHNVKLVEKLLKNNNLINILQNIEQMDTCYVCIRLLQELAVIPEYRDVIWLHEKKFMPTLFKILQRATDSQLATRIVATNSNHLGIQLQYHSLLLIWLLTFNPVFANELVQKYLSDFLDLLKLVKITIKEKVSRLCISIILQCCSTRVKQHKKVIKQLLLLGNALPTVQSLSERKYSDEELRQDISNLKEILENEYQELTSFDEYVAELDSKLLCWSPPHVDNGFWSDNIDEFKKDNYKIFRQLIELLQAKVRNGDVNAKQEKIIIQVALNDITHVVELLPESIDVLDKTGGKADIMELLNHSDSRVKYEALKATQAIIGYTFK
# B10: SHE1 (protein, UniProt P38200 1-338)
# chain: MNDKLQEEHNEKDTTSQINGFTPPHMSIDFHSNNNSNIIETIGVSKRLGNSVLSELDSRASSKFEFLKDQSEQQYNGDKNNEPKSGSYNINEFFQAKHDSQFGQMESLDTHYTLLHTPKRKSQHAIPQDRSDSMKRSRPSRSIPYTTPVVNDITRRIRRLKLRNSLVNGNDIVARARSMQANSNINSIKNTPLSKPKPFMHKPNFLMPTTNSLNKINSAHRNTSSSSTASSIPRSKVHRSISIRDLHAKTKPVERTPVAQGTNSQLKNSVSVFDRLYKQTTFSRSTSMNNLSSGTSAKSKEHTNVKTRLVKSKTSGSLSSNLKQSTATGTKSDRPIWR
# B11: YCR087C-A (protein, UniProt P37263 1-153)
# chain: MVTFNCEVCNDTVPKKNTEKHYYRCPNAYYTCIDCSKTFEDGVSYKNHTSCISEDEKYQKALYKGNKKQKQKQQQKQQQKQHQHQPVATPAKKVEKPVIKKAEKVEKTSNGIELHKGKSLYKILKTMKDKGAKKTFLKSLVVDSEGQIRYAKE
# Biological target: T1, His6-Gis1 (yeast (S. cerevisiae))
# Assay: affinity purification with mass spectrometry; His6-Gis1 pre-bound to a Ni Sepharose 6 Fast Flow column; crude yeast extract (Δgis1 cells grown in air or under hypoxia, Δgis1Δhem1 cells at intermediate or high ALA) loaded, 4 °C, 2 h; eluted complexes separated by SDS-PAGE, bands excised, MS; only the target purified
row,binding,Binder
1,binds,B1
2,binds,B2
3,binds,B3
4,binds,B4
5,binds,B5
6,binds,B6
7,binds,B7
8,binds,B8
9,binds,B9
10,binds,B10
11,binds,B11
